Molecular target: 53BP1 (human, UniProt Q12888 1-1972, limits assumed)
Assay: cell-based or functional assay

Chains of the proteins cited; added tags and fusions are not shown. Lines headed by an entry give the natural chain unless they say otherwise; changes in a name come on top.
UniProt Q12888: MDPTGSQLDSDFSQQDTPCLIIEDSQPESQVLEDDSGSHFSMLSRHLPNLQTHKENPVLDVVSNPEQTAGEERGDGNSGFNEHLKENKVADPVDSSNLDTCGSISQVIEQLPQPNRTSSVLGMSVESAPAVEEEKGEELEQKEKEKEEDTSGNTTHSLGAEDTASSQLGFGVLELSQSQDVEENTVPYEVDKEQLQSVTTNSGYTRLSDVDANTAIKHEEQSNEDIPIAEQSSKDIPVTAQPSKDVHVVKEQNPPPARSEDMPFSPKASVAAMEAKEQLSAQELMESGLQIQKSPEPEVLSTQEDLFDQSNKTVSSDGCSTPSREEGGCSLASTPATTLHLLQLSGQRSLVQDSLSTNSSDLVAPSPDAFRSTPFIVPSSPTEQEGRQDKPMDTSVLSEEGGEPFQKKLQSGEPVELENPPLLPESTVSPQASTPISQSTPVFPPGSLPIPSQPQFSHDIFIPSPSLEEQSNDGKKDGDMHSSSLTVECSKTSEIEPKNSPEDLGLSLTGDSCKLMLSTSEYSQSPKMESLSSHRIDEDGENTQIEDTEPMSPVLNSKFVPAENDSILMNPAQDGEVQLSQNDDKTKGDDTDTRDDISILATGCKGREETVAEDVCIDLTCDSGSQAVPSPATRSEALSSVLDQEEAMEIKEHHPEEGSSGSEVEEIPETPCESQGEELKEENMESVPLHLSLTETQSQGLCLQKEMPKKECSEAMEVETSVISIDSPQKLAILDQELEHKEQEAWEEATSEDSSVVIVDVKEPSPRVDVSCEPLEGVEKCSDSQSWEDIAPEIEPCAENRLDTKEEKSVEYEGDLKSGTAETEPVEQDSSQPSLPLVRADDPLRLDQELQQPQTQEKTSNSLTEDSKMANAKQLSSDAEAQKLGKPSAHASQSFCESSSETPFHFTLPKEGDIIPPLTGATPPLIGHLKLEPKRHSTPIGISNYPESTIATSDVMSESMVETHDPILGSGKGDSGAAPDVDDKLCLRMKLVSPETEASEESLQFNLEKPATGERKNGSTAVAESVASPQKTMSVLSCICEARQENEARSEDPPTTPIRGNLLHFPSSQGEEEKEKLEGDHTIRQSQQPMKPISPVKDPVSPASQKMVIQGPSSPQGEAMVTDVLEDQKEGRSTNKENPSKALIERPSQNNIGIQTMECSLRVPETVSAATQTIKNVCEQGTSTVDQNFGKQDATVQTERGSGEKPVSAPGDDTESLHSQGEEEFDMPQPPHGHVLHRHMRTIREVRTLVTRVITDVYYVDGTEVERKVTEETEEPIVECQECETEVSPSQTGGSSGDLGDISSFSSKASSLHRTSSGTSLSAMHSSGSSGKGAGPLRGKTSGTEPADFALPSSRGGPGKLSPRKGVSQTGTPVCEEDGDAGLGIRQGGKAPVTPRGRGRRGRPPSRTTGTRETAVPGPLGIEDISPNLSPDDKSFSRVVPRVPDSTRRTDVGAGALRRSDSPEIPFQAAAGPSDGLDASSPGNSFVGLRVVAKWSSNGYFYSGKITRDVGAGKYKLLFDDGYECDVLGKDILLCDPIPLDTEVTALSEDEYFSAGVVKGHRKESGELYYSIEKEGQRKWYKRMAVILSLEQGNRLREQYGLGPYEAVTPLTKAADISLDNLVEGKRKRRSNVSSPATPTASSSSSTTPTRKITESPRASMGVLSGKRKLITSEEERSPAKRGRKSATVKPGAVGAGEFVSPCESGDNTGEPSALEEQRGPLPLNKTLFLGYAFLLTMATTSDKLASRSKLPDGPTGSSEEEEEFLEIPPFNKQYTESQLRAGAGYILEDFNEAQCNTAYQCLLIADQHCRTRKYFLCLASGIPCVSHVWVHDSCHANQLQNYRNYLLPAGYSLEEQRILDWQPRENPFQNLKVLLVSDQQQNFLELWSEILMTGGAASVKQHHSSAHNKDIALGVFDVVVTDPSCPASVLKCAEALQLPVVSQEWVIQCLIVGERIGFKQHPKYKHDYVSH

- increase in rates of HDR in primary T cells (Ubv-A protein or mRNA, NGS): > 2 fold
B1: ubiquitin variant A [Ubv-A] (designed binder)
chain: MLIFVRMLTGKMIELEVEPSDTIENVKAKIQDHEGIPPDQQRLAFQGKSLEDGRTLSDYNILKDPKKMPLLRLR

Source: patent publication US20250296964A1 (INTEGRATED DNA TECHNOLOGIES, published 2025)
